# The other results are listed elsewhere or left out.
# By UniProt entry, the sequences of proteins in these tests, tags left out. Where a name states a change or a piece, a line headed by the entry shows the natural chain unless it says otherwise.
# UniProt O95985: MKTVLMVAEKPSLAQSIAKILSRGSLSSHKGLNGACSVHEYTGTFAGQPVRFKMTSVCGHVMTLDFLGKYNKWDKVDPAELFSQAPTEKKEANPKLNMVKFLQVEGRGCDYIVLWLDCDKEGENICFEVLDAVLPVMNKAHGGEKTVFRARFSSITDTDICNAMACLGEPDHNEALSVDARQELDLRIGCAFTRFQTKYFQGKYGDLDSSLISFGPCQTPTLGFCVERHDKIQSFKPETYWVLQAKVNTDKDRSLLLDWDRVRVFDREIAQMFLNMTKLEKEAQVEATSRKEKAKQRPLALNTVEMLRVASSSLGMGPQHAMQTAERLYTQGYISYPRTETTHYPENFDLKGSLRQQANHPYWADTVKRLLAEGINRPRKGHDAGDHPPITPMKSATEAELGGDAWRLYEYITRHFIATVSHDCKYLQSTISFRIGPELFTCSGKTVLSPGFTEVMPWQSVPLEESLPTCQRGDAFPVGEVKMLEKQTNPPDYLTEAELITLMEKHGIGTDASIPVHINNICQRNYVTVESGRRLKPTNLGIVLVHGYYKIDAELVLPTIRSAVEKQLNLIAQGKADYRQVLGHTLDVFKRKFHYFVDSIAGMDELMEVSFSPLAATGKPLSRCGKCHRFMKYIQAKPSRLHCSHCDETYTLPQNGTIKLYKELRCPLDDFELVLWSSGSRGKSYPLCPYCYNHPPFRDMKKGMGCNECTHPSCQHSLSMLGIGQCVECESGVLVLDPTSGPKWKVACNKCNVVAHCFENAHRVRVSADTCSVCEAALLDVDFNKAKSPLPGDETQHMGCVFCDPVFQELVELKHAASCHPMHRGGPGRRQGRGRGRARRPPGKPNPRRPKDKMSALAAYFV
# UniProt O60603, whole entry, looked up: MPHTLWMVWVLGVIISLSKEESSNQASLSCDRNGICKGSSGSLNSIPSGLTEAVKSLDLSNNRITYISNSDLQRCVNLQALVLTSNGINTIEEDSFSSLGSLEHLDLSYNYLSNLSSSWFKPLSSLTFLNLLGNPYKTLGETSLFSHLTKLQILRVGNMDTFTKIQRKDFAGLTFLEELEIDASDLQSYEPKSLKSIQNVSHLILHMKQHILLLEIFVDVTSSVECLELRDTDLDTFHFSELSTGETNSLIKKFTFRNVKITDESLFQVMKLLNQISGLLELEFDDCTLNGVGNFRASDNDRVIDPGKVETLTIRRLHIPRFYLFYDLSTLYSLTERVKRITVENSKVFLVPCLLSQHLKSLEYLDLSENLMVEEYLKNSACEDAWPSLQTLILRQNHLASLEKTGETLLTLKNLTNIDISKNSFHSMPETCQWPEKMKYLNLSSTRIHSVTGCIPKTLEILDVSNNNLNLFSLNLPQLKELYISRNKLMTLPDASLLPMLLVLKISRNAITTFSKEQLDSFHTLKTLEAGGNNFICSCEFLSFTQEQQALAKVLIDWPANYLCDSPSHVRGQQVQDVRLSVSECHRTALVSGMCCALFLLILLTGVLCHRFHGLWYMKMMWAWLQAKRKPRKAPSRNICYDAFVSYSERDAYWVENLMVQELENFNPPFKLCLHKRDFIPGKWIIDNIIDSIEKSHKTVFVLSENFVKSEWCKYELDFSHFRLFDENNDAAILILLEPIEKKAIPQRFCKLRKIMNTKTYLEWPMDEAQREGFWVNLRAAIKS
# UniProt Q02880: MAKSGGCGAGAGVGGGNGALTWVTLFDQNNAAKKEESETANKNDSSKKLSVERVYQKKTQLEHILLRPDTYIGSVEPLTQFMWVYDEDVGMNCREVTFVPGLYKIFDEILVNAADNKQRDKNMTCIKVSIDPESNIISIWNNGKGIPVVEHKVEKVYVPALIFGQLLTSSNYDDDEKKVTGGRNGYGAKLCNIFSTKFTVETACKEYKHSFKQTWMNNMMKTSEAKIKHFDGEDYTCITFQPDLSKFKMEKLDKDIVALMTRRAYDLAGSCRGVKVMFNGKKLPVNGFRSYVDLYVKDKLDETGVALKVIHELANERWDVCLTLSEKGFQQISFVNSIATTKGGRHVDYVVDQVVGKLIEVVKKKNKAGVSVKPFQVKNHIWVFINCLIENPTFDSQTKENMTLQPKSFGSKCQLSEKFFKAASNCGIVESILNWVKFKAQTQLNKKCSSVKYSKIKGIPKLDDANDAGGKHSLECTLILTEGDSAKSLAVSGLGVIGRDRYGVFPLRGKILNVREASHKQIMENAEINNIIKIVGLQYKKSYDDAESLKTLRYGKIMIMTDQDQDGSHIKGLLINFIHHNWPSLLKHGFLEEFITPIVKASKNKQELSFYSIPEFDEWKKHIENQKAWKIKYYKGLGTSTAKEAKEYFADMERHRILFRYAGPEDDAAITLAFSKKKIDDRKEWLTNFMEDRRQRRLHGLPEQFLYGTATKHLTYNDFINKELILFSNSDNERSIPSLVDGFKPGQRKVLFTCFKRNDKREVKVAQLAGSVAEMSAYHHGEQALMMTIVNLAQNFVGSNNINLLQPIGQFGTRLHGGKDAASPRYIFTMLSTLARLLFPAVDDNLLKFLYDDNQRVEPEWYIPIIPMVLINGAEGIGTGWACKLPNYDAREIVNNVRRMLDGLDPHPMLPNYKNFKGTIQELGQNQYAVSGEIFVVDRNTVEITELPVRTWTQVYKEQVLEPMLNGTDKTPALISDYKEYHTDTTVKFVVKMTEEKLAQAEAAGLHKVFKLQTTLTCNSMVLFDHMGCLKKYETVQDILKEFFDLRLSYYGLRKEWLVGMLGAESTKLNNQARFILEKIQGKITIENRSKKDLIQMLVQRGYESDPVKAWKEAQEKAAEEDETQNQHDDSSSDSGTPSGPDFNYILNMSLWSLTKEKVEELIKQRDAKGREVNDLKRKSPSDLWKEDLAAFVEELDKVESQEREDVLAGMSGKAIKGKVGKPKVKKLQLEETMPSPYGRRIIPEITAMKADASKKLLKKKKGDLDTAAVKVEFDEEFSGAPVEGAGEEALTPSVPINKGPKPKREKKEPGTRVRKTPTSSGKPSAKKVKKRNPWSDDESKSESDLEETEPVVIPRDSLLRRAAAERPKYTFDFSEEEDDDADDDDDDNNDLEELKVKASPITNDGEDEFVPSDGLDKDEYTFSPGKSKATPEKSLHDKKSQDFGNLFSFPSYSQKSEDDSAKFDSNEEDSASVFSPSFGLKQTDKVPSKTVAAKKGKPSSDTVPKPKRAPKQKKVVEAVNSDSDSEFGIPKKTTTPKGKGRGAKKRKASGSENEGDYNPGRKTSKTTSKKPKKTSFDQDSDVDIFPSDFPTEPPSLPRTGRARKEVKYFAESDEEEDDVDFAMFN
# UniProt O94826, whole entry, looked up: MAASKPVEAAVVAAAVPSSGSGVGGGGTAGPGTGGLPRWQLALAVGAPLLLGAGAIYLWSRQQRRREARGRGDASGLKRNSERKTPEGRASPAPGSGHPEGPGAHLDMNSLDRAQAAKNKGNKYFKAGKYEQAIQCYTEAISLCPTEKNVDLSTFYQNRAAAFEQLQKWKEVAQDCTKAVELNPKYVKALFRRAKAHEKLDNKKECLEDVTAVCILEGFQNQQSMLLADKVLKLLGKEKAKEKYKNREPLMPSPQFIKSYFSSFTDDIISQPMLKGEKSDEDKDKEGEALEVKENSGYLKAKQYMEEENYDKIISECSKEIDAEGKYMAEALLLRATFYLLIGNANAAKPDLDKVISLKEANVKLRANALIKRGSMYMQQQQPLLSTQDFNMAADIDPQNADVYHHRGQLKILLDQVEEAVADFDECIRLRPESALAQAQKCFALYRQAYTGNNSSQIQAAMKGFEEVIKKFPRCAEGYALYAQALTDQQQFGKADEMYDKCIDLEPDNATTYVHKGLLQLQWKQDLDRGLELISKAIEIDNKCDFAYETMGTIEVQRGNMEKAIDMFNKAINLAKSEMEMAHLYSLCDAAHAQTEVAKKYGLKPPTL
# UniProt P11387: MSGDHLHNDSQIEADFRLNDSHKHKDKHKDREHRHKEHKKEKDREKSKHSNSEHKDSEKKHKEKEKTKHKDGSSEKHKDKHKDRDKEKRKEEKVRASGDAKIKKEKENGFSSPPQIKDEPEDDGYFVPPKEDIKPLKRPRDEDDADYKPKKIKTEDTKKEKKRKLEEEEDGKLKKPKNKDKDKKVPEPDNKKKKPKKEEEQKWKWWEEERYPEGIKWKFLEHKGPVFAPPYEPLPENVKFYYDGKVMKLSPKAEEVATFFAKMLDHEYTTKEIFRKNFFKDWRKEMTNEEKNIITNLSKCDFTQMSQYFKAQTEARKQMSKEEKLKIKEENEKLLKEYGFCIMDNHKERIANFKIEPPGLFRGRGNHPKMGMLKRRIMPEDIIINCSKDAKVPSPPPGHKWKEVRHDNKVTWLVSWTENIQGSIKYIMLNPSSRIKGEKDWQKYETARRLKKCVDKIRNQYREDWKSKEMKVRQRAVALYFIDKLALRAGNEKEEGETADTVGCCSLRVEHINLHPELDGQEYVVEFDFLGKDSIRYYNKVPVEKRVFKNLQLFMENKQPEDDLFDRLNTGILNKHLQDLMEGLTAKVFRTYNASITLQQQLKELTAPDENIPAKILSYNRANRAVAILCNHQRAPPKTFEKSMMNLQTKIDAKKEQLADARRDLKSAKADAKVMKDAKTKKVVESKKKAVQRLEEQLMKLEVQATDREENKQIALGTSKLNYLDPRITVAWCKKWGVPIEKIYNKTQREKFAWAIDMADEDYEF
# UniProt Q9NV96: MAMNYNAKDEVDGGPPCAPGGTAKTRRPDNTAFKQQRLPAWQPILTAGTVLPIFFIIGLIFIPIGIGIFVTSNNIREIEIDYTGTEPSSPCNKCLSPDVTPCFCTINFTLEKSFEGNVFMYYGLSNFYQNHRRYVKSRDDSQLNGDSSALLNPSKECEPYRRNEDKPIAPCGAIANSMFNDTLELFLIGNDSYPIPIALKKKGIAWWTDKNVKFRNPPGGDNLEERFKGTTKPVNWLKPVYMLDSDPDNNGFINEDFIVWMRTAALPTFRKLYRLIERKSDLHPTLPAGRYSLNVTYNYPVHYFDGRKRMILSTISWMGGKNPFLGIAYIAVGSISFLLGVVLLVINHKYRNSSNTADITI
# UniProt P60174, whole entry, looked up: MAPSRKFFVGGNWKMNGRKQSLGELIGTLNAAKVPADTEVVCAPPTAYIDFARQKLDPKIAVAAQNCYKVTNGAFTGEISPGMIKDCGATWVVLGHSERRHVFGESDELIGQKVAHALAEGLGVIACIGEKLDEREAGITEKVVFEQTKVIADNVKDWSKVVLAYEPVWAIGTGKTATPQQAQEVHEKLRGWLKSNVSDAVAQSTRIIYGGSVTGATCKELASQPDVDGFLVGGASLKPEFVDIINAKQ
# UniProt Q9NUM4, whole entry, looked up: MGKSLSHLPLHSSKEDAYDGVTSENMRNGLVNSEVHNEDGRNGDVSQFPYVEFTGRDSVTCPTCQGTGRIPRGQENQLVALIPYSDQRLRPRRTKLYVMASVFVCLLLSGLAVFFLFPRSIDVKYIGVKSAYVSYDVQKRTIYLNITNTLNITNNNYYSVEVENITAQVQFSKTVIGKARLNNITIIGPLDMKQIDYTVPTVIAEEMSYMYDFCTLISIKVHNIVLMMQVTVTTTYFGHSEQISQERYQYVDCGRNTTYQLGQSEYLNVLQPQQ
# UniProt Q9NXH8: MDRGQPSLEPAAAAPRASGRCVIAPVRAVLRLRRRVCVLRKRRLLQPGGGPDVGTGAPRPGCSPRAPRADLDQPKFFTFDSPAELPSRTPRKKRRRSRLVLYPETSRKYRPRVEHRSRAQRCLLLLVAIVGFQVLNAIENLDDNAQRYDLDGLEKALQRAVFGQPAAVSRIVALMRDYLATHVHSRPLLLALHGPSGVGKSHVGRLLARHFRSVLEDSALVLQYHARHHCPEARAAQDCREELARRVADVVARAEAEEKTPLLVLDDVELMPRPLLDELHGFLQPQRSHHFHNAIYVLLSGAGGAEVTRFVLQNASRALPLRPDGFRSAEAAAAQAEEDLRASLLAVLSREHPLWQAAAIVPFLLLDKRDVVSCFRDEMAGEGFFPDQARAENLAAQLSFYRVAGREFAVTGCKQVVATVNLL
# UniProt Q5JTV8: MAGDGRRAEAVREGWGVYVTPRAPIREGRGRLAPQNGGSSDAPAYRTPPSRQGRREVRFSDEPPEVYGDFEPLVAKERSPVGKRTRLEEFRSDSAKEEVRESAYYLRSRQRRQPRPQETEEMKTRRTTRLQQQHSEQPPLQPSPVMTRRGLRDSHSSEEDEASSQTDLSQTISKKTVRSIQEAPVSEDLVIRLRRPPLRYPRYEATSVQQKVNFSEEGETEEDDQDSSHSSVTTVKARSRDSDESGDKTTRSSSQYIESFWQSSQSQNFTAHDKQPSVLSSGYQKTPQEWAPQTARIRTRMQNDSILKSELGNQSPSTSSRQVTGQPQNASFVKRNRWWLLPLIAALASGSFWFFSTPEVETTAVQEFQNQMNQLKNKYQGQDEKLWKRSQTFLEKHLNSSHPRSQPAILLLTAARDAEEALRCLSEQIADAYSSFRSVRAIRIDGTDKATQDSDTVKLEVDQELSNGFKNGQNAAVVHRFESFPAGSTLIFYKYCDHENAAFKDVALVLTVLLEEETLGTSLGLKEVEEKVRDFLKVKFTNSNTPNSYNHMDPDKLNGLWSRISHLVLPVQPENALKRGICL
# Compound: CC1Cc2ccccc2N1C(=O)C1CCCN(C1)C(=O)CCl (mixture of isomers) [TRIM25 ligand 11 (diastereomer mixture)]
# Assay: probe-labelled cysteine peptide fold change vs DMSO (competition) (log2 fold change); higher = less target engagement (more negative = stronger competition)
# Details: THP-1, incubation time: 4 h
# 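Also: competitive chemoproteomic profiling in live THP-1 cells with an iodoacetamide desthiobiotin (IA-DTB) probe, comparing probe-labelled peptide intensities in compound-treated cells against DMSO-treated controls.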
Target,probe-labelled cysteine peptide fold change (10 µM),probe-labelled cysteine peptide fold change (50 µM)
TOP3B_O95985_126_EGENICFEVLDAVLPVMNK (UniProt O95985),0.0014,0.0284
TLR2_O60603_564_VLIDWPANYLCDSPSHVR (UniProt O60603),0.223,0.0228
TM9SF2_Q99805_164_SMLLNYQHHWIVDNMPVTWCYDVEDGQR (UniProt Q99805),-0.081,-0.254
TONSL_Q96HA7_314_LQQQLEEAEGRDPQGAMVICEQLGDLFSK (UniProt Q96HA7),0.0453,0.0947
TOP2B_Q02880_1018_LQTTLTCNSMVLFDHMGCLK (UniProt Q02880),0.0555,-0.00569
TM9SF1_O15321_107_ILCHMQLSSAQVEQLR (UniProt O15321),-0.101,-0.0899
TNFAIP2_Q03169_512_LPEFSELQGCFREELMEALHLHLVK (UniProt Q03169),0.0837,-0.00748
TM9SF3_Q9HD45_66_YFSLPFCVGSK (UniProt Q9HD45),2.09e-05,-0.143
TMEM141_Q96I45_86_CNNLWLFLETGQLPK (UniProt Q96I45),0.119,0.0737
TOMM70_O94826_588_SEMEMAHLYSLCDAAHAQTEVAK (UniProt O94826),-0.0764,-0.0114
TMF1_P82094_301_SSLHLMQTSFQLLSASACPEYNR (UniProt P82094),-0.319,-0.525
TMEM126B_Q8IUX1_151_SSLIGIVCGVFYPSSLAFTK (UniProt Q8IUX1),0.0309,-0.126
TMED3_Q9Y3Q3_101_GVYQFCFSNEFSTFSHK (UniProt Q9Y3Q3),0.192,0.0996
TOPBP1_Q92547_1485_TEYIADYLMQESPPHVENYCLPEAISFIQNNK (UniProt Q92547),0.321,0.142
TOP1_P11387_341_EYGFCIMDNHK (UniProt P11387),-0.0915,-0.217
TM9SF1_O15321_67_VGPYHNPQETYHYYQLPVCCPEK (UniProt O15321),-0.0619,0.0845
TOPBP1_Q92547_60_SLYICDPFSGVVFDHLK (UniProt Q92547),0.248,0.28
TOP2A_P11388_170_LCNIFSTK (UniProt P11388),0.00483,-0.016
TOP1_P11387_630_AVAILCNHQR (UniProt P11387),-0.00984,-0.0238
TONSL_Q96HA7_1167_LQACGFGPSFFLSHQTALGSAFQDAEHLK (UniProt Q96HA7),0.0193,-0.000688
TOMM34_Q15785_74_DCTSALALVPFSIK (UniProt Q15785),-0.0714,-0.0676
TNPO1_Q92973_205_SHAVACVNQFIISR (UniProt Q92973),0.0597,0.189
TOP3B_O95985_819_HAASCHPMHR (UniProt O95985),0.0936,-0.331
TMEM120A_Q9BXJ8_47_LQNNCTSSITR (UniProt Q9BXJ8),-0.112,-0.0154
TONSL_Q96HA7_1345_LCAEDRDALR (UniProt Q96HA7),-0.0885,-0.107
TOX4_O94842_577_SGCENPPIVSK (UniProt O94842),0.096,-0.172
TOP2B_Q02880_387_NHIWVFINCLIENPTFDSQTK (UniProt Q02880),-0.0715,0.0129

Target,probe-labelled cysteine peptide fold change (10 µM),probe-labelled cysteine peptide fold change (50 µM)
TNKS1BP1_Q9C0C2_1296_NMAPGAVCSPGESK (UniProt Q9C0C2),0.00736,-0.401
TOLLIP_Q9H0E2_106_VIHCTVPPGVDSFYLEIFDER (UniProt Q9H0E2),-0.0586,0.265
TMEM30A_Q9NV96_17_DEVDGGPPCAPGGTAK (UniProt Q9NV96),-0.00767,0.0338
TONSL_Q96HA7_596+608_FLLDHGAAVDDPGGQGCEGITPLHDALNCGHFEVAELLLER (UniProt Q96HA7),0.0631,-0.336
TNPO1_Q92973_862_DDLRDMFCK (UniProt Q92973),0.114,0.132
TOP2A_P11388_997+1008_LQTSLTCNSMVLFDHVGCLK (UniProt P11388),0.072,0.179
TMEM63B_Q5T3F8_267_HFEEAYPNCTVLEAR (UniProt Q5T3F8),0.203,0.178
TOR3A_Q9H497_227_ETQQLCHQTLFIFDEAEK (UniProt Q9H497),0.19,0.126
TOPBP1_Q92547_238_MNECTHLIVQEPK (UniProt Q92547),-0.0485,0.0151
TMEM104_Q8NE00_455_DTQLAFGCGVSNK (UniProt Q8NE00),0.0334,-0.0938
TPD52L2_O43399_74_HCGELK (UniProt O43399),-0.1,-0.108
TONSL_Q96HA7_596_FLLDHGAAVDDPGGQGCEGITPLHDALNCGHFEVAELLLER (UniProt Q96HA7),0.33,0.196
TOP1_P11387_300_CDFTQMSQYFK (UniProt P11387),-0.0527,-0.0936
TPI1_P60174_104_IAVAAQNCYK (UniProt P60174),-0.0506,-0.0513
TP53BP1_Q12888_1038+1040_TMSVLSCICEAR (UniProt Q12888),0.00587,-0.446
TOMM70_O94826_427_ILLDQVEEAVADFDECIR (UniProt O94826),-0.258,-0.163
TMEM106B_Q9NUM4_253_YQYVDCGR (UniProt Q9NUM4),0.0737,0.0561
TOP3B_O95985_522_HGIGTDASIPVHINNICQR (UniProt O95985),-0.0303,0.064
TP53I3_Q53FA7_76_QGQYDPPPGASNILGLEASGHVAELGPGCQGHWK (UniProt Q53FA7),-0.0917,-0.143
TOPBP1_Q92547_1099_SGCNSASSTPDSTR (UniProt Q92547),-0.0617,-0.174
TLN1_Q9Y490_1661_DKAPGQLECETAIAALNSCLR (UniProt Q9Y490),0.039,-0.111
TMPO_P42166_341_SGIQPLCPER (UniProt P42166),-0.0437,-0.196
TP53BP1_Q12888_712_ECSEAMEVETSVISIDSPQK (UniProt Q12888),0.0948,-0.262
TNPO3_Q9Y5L0_634_HTNPIVENGQTHPCQK (UniProt Q9Y5L0),0.0306,-0.0104
TMEM30A_Q9NV96_157_ECEPYRR (UniProt Q9NV96),-0.11,-0.102
TMEM206_Q9H813_128_EVDRYDAPGIALYPGQAQLLSCK (UniProt Q9H813),-0.0346,-0.376
TOR4A_Q9NXH8_374_DVVSCFRDEMAGEGFFPDQAR (UniProt Q9NXH8),0.0221,0.147

Target,probe-labelled cysteine peptide fold change (10 µM),probe-labelled cysteine peptide fold change (50 µM)
TMEM94_Q12767_984_GIHQVRPHLQNIDNVPLLVPLFTDCTPETMCEMIK (UniProt Q12767),-0.0567,0.0187
TOP2B_Q02880_476_HSLECTLILTEGDSAK (UniProt Q02880),-0.00291,0.112
TNS3_Q68CZ2_842_ESMCSTPAFPVSPETPYVK (UniProt Q68CZ2),0.142,0.0525
TNPO2_O14787_93_QECLNNIGDASSLIR (UniProt O14787),0.282,0.058
TP53BP1_Q12888_1926_DIALGVFDVVVTDPSCPASVLK (UniProt Q12888),-0.0789,-0.145
TLR2_O60603_585_LSVSECHR (UniProt O60603),0.0952,0.0385
TMEM214_Q6NUQ4_222_ICIQAILQDKPK (UniProt Q6NUQ4),0.0567,0.0242
TONSL_Q96HA7_972_YYQTCGLLPR (UniProt Q96HA7),0.08,0.0172
TONSL_Q96HA7_66_ADDPLGCAVAHR (UniProt Q96HA7),-0.0555,0.0509
TMEM120B_A0PK00_43_QKLEELAALQTLCSSSISK (UniProt A0PK00),-0.035,-0.0472
TM9SF4_Q92544_104_KCEVLCSQSNKPVTLTVEQSR (UniProt Q92544),0.0846,-0.0345
TOR1AIP1_Q5JTV8_496_YCDHENAAFK (UniProt Q5JTV8),0.0922,0.111
TMCO6_Q96DC7_14_LRPTVCGVEELRR (UniProt Q96DC7),0.00216,-0.154
TNPO2_O14787_789_LGYVCPQEVAPMLQQFIR (UniProt O14787),0.209,0.122
TMEM30A_Q9NV96_91_EIEIDYTGTEPSSPCNK (UniProt Q9NV96),0.124,0.00329
TOP1_P11387_386_IMPEDIIINCSK (UniProt P11387),-0.0421,-0.114
TOP2A_P11388_1145_KDELCR (UniProt P11388),-0.0248,-0.0548
TOP2A_P11388_997_LQTSLTCNSMVLFDHVGCLK (UniProt P11388),0.078,0.205
TOPORS_Q9NS56_49_HRPSFLGCR (UniProt Q9NS56),-0.0352,-0.342
TOR4A_Q9NXH8_230_HHCPEAR (UniProt Q9NXH8),0.05,-0.009
TMEM106B_Q9NUM4_61_DSVTCPTCQGTGR (UniProt Q9NUM4),-0.212,-0.256
TLN2_Q9Y4G6_1110_AVGSSMAQLLTCAAQGNEHYTGVAAR (UniProt Q9Y4G6),-0.0955,-0.234
TLN1_Q9Y490_1927_HRVQELGHGCAALVTK (UniProt Q9Y490),-0.112,-0.165
TLN1_Q9Y490_1506+1509_HTSALCNSCR (UniProt Q9Y490),0.12,0.154
TOP2B_Q02880_1018+1029_LQTTLTCNSMVLFDHMGCLK (UniProt Q02880),0.141,-0.0526

# Four records drawn at random from those above:
Target,probe-labelled cysteine peptide fold change (10 µM),probe-labelled cysteine peptide fold change (50 µM)
TOP2A_P11388_997_LQTSLTCNSMVLFDHVGCLK (UniProt P11388),0.078,0.205
TONSL_Q96HA7_972_YYQTCGLLPR (UniProt Q96HA7),0.08,0.0172
TOR1AIP1_Q5JTV8_496_YCDHENAAFK (UniProt Q5JTV8),0.0922,0.111
TP53BP1_Q12888_1926_DIALGVFDVVVTDPSCPASVLK (UniProt Q12888),-0.0789,-0.145
